Measurements reported in the supplement of paper PMC12823440, “Inhibitors supercharge kinase turnover through native proteolytic circuits” (Nature, 2025).
Counter-ions that a name gives are not always drawn. The list shows a part of the results. Hit calls seldom repeat between salt and free forms of one compound.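 Kinases were expressed as nanoluciferase fusions in K562 cells and luminescence was read every 4 h between 2 and 18 h as percent of control, DMSO set to 100% and a positive control to 0%. A time point counts as decreased when the signal drops significantly (2 sigma). The hit call is the authors' own, does not follow from the count of time points alone, and its rule is not shown.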

By UniProt entry, the sequences of proteins in these tests, tags left out. Where a name states a change or a piece, a line headed by the entry shows the natural chain unless it says otherwise.
UniProt Q15303, whole entry R711C: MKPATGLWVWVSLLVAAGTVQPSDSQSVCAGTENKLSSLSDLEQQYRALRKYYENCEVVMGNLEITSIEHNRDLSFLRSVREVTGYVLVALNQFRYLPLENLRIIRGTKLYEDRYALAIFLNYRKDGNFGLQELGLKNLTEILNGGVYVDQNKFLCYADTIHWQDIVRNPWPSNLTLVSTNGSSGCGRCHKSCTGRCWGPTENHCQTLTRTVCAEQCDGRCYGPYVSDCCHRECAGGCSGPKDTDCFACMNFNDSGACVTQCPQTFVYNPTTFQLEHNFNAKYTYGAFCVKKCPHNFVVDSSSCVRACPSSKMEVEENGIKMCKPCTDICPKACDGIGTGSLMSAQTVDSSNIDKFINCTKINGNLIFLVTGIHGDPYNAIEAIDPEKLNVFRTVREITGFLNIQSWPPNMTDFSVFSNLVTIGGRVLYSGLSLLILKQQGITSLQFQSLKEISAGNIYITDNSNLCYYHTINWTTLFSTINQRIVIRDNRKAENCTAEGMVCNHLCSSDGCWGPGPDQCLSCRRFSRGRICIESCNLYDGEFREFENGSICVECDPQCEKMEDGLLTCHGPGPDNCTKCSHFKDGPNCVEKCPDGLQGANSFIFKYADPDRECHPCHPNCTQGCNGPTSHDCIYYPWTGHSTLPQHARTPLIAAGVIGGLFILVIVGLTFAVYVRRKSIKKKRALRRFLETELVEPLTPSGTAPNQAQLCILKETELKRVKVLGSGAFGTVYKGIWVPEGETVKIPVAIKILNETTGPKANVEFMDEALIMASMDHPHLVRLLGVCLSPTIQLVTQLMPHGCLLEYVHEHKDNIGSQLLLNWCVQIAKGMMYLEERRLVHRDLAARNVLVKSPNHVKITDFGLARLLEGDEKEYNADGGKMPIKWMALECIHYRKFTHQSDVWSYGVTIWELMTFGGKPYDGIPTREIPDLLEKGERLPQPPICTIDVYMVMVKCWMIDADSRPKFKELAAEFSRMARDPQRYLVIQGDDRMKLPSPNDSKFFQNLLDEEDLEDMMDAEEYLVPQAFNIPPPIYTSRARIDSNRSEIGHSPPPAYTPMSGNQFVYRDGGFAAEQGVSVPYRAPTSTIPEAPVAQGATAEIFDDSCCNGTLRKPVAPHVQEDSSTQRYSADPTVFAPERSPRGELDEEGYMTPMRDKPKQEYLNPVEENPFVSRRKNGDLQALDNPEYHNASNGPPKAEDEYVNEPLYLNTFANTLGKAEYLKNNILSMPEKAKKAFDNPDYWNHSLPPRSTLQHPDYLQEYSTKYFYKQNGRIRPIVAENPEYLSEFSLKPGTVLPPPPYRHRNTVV
UniProt O75460: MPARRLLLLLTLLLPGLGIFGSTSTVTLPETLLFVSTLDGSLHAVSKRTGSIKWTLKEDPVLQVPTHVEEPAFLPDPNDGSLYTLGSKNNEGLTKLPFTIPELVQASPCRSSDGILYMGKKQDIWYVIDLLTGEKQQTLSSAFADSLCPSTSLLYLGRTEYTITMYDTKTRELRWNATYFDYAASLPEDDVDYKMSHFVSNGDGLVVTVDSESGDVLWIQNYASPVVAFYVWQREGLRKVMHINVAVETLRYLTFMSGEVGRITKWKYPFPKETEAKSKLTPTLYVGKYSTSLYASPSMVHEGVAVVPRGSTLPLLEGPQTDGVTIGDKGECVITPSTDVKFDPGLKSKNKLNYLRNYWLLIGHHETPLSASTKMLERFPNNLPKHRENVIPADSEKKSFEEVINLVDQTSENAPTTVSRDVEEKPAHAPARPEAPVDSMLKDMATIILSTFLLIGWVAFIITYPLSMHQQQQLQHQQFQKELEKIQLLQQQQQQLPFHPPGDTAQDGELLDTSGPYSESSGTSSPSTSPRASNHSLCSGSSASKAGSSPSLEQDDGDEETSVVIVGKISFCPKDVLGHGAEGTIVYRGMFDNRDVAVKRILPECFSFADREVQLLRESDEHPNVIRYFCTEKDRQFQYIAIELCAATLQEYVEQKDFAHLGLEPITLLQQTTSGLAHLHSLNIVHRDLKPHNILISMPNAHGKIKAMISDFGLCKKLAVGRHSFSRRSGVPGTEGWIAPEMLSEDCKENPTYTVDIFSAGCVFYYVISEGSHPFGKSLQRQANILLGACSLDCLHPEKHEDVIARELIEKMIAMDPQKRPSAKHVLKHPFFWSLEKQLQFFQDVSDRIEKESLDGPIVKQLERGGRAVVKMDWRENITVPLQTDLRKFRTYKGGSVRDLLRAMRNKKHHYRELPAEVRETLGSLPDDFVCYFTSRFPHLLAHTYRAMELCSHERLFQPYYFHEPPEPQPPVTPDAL
UniProt P22607, whole entry, looked up: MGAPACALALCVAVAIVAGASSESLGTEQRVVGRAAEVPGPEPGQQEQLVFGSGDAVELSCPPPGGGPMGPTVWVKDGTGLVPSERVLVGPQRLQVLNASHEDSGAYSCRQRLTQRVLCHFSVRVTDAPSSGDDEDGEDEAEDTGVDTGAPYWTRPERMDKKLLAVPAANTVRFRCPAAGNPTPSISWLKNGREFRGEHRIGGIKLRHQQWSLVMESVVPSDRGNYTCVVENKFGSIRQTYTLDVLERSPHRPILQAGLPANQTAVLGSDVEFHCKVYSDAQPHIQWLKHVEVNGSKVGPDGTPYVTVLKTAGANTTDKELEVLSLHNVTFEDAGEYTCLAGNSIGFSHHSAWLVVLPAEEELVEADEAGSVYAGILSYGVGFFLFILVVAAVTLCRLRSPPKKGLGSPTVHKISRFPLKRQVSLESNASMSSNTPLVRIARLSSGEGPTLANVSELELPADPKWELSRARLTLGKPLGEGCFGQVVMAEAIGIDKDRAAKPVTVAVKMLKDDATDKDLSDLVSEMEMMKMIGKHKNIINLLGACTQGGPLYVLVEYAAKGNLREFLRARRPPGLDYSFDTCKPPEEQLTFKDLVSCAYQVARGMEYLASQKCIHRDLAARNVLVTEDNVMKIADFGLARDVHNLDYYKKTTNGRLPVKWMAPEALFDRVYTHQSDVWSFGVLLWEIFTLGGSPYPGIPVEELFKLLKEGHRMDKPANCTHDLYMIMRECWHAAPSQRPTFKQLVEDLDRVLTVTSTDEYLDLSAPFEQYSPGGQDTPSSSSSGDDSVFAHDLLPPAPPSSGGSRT
UniProt P49840: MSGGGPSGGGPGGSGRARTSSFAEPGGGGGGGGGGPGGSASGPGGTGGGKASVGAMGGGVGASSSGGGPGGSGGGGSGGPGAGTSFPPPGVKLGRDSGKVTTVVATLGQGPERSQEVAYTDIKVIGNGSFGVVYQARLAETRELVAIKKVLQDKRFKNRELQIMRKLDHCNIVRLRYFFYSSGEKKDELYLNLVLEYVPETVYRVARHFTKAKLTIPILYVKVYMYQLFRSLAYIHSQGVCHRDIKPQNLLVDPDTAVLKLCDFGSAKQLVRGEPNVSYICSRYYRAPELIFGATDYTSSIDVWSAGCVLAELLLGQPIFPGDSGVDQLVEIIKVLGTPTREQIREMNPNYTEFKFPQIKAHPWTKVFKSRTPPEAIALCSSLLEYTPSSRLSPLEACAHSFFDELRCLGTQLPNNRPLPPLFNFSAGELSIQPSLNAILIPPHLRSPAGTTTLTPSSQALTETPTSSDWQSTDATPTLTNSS
UniProt P23458: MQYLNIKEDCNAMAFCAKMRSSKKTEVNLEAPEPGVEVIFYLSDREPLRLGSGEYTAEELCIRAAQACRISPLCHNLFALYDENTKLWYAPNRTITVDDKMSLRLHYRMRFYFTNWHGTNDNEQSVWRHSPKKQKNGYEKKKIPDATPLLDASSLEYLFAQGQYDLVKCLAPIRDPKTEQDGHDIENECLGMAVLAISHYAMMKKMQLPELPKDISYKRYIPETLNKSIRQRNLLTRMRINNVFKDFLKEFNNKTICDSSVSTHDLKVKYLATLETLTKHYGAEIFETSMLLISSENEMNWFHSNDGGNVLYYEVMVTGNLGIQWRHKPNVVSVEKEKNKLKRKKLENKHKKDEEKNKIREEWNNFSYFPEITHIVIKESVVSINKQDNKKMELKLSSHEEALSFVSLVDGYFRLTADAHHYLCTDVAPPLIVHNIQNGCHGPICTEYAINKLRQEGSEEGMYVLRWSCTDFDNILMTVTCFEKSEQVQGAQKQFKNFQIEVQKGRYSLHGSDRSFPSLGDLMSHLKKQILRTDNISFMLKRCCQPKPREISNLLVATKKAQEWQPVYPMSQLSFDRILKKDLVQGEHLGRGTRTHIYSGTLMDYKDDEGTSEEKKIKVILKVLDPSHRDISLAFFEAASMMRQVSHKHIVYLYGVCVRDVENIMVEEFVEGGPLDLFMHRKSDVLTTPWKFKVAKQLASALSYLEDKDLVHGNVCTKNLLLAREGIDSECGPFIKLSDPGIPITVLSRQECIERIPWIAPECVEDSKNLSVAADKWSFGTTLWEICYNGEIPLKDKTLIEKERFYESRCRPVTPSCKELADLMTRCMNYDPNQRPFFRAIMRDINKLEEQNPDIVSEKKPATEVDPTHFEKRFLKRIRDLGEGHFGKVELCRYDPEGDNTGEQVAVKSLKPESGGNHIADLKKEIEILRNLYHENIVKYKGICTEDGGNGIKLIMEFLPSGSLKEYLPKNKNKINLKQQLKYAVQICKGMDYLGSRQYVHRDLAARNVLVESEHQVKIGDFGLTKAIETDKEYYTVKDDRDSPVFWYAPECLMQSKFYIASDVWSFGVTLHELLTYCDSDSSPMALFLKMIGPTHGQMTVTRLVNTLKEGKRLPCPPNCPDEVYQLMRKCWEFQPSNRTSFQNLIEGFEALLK
UniProt P06239: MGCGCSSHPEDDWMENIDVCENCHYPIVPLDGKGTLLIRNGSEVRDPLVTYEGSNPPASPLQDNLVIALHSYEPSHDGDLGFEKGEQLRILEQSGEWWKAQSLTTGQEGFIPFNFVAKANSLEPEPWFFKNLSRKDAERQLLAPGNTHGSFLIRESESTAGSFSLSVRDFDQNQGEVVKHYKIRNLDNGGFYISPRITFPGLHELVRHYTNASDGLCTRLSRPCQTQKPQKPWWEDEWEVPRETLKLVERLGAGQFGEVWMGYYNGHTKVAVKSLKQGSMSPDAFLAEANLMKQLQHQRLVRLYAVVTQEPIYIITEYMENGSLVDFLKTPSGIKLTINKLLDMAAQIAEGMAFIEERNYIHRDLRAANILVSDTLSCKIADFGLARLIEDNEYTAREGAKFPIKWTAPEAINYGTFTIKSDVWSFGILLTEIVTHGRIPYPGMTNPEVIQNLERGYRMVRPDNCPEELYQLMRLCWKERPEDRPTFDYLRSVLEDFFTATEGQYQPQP
UniProt P53667: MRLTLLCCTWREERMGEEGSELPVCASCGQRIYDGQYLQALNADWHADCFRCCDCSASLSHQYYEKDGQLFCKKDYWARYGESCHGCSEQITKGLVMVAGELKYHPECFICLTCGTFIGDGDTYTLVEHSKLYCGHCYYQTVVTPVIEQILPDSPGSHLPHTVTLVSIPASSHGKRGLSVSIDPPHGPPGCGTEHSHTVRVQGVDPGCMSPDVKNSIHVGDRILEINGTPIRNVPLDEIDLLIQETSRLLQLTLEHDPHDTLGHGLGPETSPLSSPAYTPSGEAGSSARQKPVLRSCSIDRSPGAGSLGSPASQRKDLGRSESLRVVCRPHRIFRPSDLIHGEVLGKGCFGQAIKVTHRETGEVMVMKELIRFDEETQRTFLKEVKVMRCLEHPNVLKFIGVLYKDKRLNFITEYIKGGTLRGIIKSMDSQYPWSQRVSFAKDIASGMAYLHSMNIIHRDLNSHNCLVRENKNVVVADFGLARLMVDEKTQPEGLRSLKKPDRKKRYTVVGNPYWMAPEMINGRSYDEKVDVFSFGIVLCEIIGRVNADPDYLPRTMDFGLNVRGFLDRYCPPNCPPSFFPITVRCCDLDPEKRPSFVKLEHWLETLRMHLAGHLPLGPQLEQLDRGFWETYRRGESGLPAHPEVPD
UniProt P53671: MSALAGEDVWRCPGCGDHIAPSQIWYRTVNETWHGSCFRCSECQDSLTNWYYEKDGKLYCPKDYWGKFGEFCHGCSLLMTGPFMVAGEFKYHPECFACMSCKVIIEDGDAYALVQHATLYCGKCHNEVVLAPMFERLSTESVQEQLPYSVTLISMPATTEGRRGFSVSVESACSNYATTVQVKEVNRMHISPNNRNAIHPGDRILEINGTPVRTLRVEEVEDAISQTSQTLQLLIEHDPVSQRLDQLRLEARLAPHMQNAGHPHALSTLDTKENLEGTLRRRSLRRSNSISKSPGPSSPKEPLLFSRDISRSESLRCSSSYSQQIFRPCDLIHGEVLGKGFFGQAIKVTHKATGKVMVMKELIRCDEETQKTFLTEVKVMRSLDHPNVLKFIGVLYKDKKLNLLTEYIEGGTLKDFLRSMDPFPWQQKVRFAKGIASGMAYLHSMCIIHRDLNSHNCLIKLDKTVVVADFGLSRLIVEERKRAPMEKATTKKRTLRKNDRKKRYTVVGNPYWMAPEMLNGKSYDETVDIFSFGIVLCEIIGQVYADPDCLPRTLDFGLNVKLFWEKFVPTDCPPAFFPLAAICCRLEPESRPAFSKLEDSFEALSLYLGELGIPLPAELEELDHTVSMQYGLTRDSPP

Experiments:
Assay in all cases: number of time points (of 5) at which kinase-Nluc abundance scored as decreased, DMSO-normalised (count); higher = more persistent destabilization
Settings in all cases: K562; 2-18 h
[1] = target: EGFR_L861Q (UniProt P00533)
[2] = target: EGFR_T790M (UniProt P00533)
[3] = target: EPHA2 (UniProt P29317)
[4] = target: ERBB3 (UniProt P21860)
[5] = target: ERBB4_R711C (clone: ERBB4_mut) (UniProt Q15303)
[6] = target: ERN1 (UniProt O75460)
[7] = target: FGFR1 (UniProt P11362)
[8] = target: FGFR2 (UniProt P21802)
[9] = target: FGFR3 (UniProt P22607)
[10] = target: FGR (UniProt P09769)
[11] = target: FLT3 (UniProt P36888)
[12] = target: FYN (UniProt P06241)
[13] = target: GSK3A (UniProt P49840)
[14] = target: HER2 (UniProt P04626)
[15] = target: INSRR (UniProt P14616)
[16] = target: IRAK3 (UniProt Q9Y616)
[17] = target: JAK1 (UniProt P23458)
[18] = target: LCK (UniProt P06239)
[19] = target: LIMK1 (UniProt P53667)
[20] = target: LIMK2 (UniProt P53671)

Row | Structure (SMILES) | number of time points [1] | number of time points [2] | number of time points [3] | number of time points [4] | number of time points [5] | number of time points [6] | number of time points [7] | number of time points [8] | number of time points [9] | number of time points [10] | number of time points [11] | number of time points [12] | number of time points [13] | number of time points [14] | number of time points [15] | number of time points [16] | number of time points [17] | number of time points [18] | number of time points [19] | number of time points [20]
1 | Cc1[nH]c(/C=C2\C(=O)Nc3ccc(S(=O)(=O)Cc4c(Cl)cccc4Cl)cc32)c(C)c1C(=O)N1CCC[C@@H]1CN1CCCC1 (2.5 µM) | 0 | 0 | 0 | 0 | 0 | 0 | 0 | 0 | 0 | 0 | 0 | 0 | 0 | 0 | 0 | 0 | 0 | 0 | 0 | 0
2 | COCc1c(-c2ccc(NC(=O)Nc3cc(C(F)(F)F)ccc3F)c(F)c2)c2c(N)ncnn2c1CN1CCOCC1 (2.5 µM) | 0 | 0 | 0 | 0 | 0 | 0 | 0 | 3 | 0 | 0 | 0 | 0 | 0 | 0 | 0 | 0 | 0 | 0 | 0 | 0
3 | CN(C)C[C@@H]1CCn2cc(c3ccccc32)C2=C(C(=O)NC2=O)c2cn(c3ccccc23)CCO1 [Ruboxistaurin (hydrochloride)] (10 µM) | 0 | 0 | 0 | 0 | 0 | 0 | 0 | 0 | 0 | 0 | 0 | 0 | 0 | 0 | 0 | 0 | 0 | – | 0 | 0
4 | CCCCC[C@H](O)CC(=O)CCc1ccc(O)c(OC)c1 [[6]-Gingerol] (10 µM) | 0 | 0 | 0 | 0 | 0 | 0 | 0 | 0 | 0 | 0 | 0 | 0 | 0 | 0 | 0 | 0 | 0 | 0 | 0 | 0
5 | COc1ccc(F)c(F)c1C(=O)c1cnc(NC2CCN(S(C)(=O)=O)CC2)nc1N (2.5 µM) | 2 | 0 | 0 | 4 | 3 | 3 | 0 | 3 | 0 | 0 | 3 | 3 | 2 | 2 | 2 | 3 | 1 | 0 | 0 | 0
6 | CN1CCN(S(=O)(=O)c2ccc(-c3cnc(N)c(C(=O)Nc4cccnc4)n3)cc2)CC1 (10 µM) | 0 | 0 | 0 | 0 | 1 | 0 | 0 | 0 | 0 | 0 | 0 | 0 | 0 | 0 | 0 | 0 | 0 | 0 | 0 | 0
7 | Cc1ccc2c(Nc3ccc(Cl)cc3)nccc2c1Nc1ncccc1-c1ncnc2nc[nH]c12 [Raf inhibitor 1] (2.5 µM) | 0 | 0 | 0 | 0 | 0 | 0 | 0 | 0 | 0 | 0 | 0 | 0 | 0 | 0 | 0 | 0 | 0 | – | 0 | 0
8 | CCCn1cnc2c(NCc3ccccc3)nc(NC(CC)CO)nc21 (configuration not stated) [Ca2+ channel agonist 1] (2.5 µM) | 0 | 0 | 0 | 0 | 0 | 0 | 0 | 0 | 0 | 0 | 0 | 0 | 0 | 0 | 0 | 0 | 0 | 0 | 0 | 0
9 | CCCS(=O)(=O)Nc1ccc(F)c(C(=O)c2c[nH]c3ncc(Cl)cc23)c1F (10 µM) | 0 | 0 | 0 | 2 | 0 | 0 | 0 | 0 | 0 | 0 | 0 | 0 | 0 | 0 | 0 | 0 | 4 | 0 | 0 | 0
10 | COc1cc2ncnc(Nc3cccc(Cl)c3F)c2cc1OC(=O)N1CCN(C)C[C@H]1C [Zorifertinib] (10 µM) | 0 | 0 | 0 | 0 | 0 | 0 | 3 | 0 | 0 | 0 | 0 | 0 | 3 | 0 | 0 | 0 | 0 | 0 | 0 | 0
11 | c1cc(OCCN2CCCCC2)cc(-c2n[nH]c3ccc(-c4nnc[nH]4)cc23)c1 [CC-401 (hydrochloride)] (10 µM) | 0 | 0 | 0 | 0 | 0 | 0 | 0 | 0 | 0 | 0 | 0 | 0 | 0 | 0 | 0 | 0 | 0 | 0 | 0 | 0
12 | COc1ccc(Oc2cc(NCCC(F)(F)F)c3ncc(-c4ccc(C(=O)NC5CC5)c(C)c4)n3n2)c(F)c1F (2.5 µM) | 0 | 0 | 0 | 0 | 0 | 0 | 0 | 0 | 0 | 0 | 0 | 0 | 0 | 0 | 0 | 0 | 0 | 0 | 0 | 0
13 | CN(C)C(=O)/C(C#N)=C/c1ccc(-c2nc3cnc4[nH]ccc4c3n2C2CCCCC2)o1 (10 µM) | 0 | 0 | 0 | 0 | 0 | 0 | 0 | 0 | 0 | 0 | 0 | 0 | 0 | 0 | 0 | 0 | 0 | 0 | 0 | 0
14 | CC(C)(C#N)c1ccc(N2C(=O)OCc3cnc4ccc(-c5cnc6ccccc6c5)cc4c32)cc1 (2.5 µM) | 0 | 0 | 0 | 0 | 0 | 0 | 0 | 0 | 0 | 0 | 0 | 0 | 0 | 5 | 0 | 0 | 0 | 0 | 0 | 0
15 | CN(C)CCOc1ccc(-c2nc(-c3ccncc3)c(-c3ccc4c(c3)CC/C4=N\O)[nH]2)cc1 (10 µM) | 0 | 0 | 0 | 0 | 0 | 0 | 0 | 0 | 0 | 0 | 0 | 0 | 0 | 0 | 0 | 0 | 0 | 0 | 0 | 0
16 | Cc1ccc(NC(=O)c2cccc(N(C)C)c2)cc1NC(=O)c1ccc(O)cc1 (10 µM) | 0 | 0 | 0 | 0 | 0 | 0 | 0 | 0 | 0 | 0 | 0 | 0 | 0 | 0 | 0 | 0 | 0 | – | 0 | 0
17 | COc1cc2c(Nc3ccc(NC(=O)c4ccccc4)cc3)ncnc2cc1OCCCN1CCOCC1 (10 µM) | 0 | 0 | 0 | 0 | 0 | 0 | 0 | 0 | 0 | 0 | 0 | 4 | 0 | 1 | 0 | 0 | 0 | – | 0 | 0
18 | O=C(NOC[C@H](O)CO)c1ccc(F)c(F)c1Nc1ccc(I)cc1F (2.5 µM) | 0 | 0 | 0 | 0 | 0 | 0 | 0 | 0 | 0 | 0 | 0 | 0 | 0 | 0 | 0 | 0 | 0 | 0 | 0 | 0
19 | C=CC(=O)N1C[C@H](Nc2ncnc3[nH]ccc23)CC[C@@H]1C [Ritlecitinib] (10 µM) | 0 | 0 | 0 | 0 | 0 | 0 | 0 | 0 | 0 | 0 | 0 | 0 | 0 | 0 | 0 | 0 | 0 | 0 | 0 | 0
20 | CC(C)(C)c1nc2c3cc[nH]c(=O)c3c3cc(F)ccc3c2[nH]1 [Pyridone 6] (10 µM) | 0 | 0 | 0 | 0 | 0 | 0 | 0 | 0 | 0 | 0 | 0 | 0 | 0 | 0 | 0 | 0 | 0 | – | 0 | 0
21 | CC(C)c1ccc2oc3nc(N)c(C(=O)O)cc3c(=O)c2c1 [Amlexanox] (10 µM) | 0 | 0 | 0 | 0 | 0 | 0 | 0 | 0 | 0 | 0 | 0 | 0 | 0 | 0 | 0 | 0 | 0 | 0 | 0 | 0
22 | Cc1nc(-c2cnc(NC(C)C)n(C)c2=O)ccc1Oc1ccnc(-c2cnn(C)c2)c1 (2.5 µM) | 0 | 0 | 0 | 0 | 2 | 0 | 0 | 0 | 0 | 0 | – | 0 | 0 | 0 | 0 | 0 | 0 | – | 0 | 0
23 | COc1cc(C(=O)NC2CCN(C)CC2)c(F)cc1Nc1ncc2c(n1)N(C1CCCC1)CC(F)(F)C(=O)N2C [TAK-960 (dihydrochloride)] (2.5 µM) | 0 | 0 | 0 | 0 | 0 | 0 | 0 | 0 | 0 | 0 | 0 | 0 | 0 | 0 | 1 | 0 | 1 | 0 | 0 | 0
24 | COc1ccc2c(C(=O)Nc3ccc(NC(=O)c4nn(C5CCN(C(=O)CC(C)(C)C#N)CC5)c5ccc(F)cc45)cc3Cl)cnn2c1 [Src Inhibitor 3] (2.5 µM) | 2 | 1 | 1 | 3 | 2 | 1 | 1 | 3 | 2 | 4 | 2 | 2 | 0 | 1 | 3 | 2 | 1 | – | 2 | 2

From no. 8 to 13, as listed above:
Row | Structure (SMILES) | number of time points [1] | number of time points [2] | number of time points [3] | number of time points [4] | number of time points [5] | number of time points [6] | number of time points [7] | number of time points [8] | number of time points [9] | number of time points [10] | number of time points [11] | number of time points [12] | number of time points [13] | number of time points [14] | number of time points [15] | number of time points [16] | number of time points [17] | number of time points [18] | number of time points [19] | number of time points [20]
8 | CCCn1cnc2c(NCc3ccccc3)nc(NC(CC)CO)nc21 (configuration not stated) [Ca2+ channel agonist 1] (2.5 µM) | 0 | 0 | 0 | 0 | 0 | 0 | 0 | 0 | 0 | 0 | 0 | 0 | 0 | 0 | 0 | 0 | 0 | 0 | 0 | 0
9 | CCCS(=O)(=O)Nc1ccc(F)c(C(=O)c2c[nH]c3ncc(Cl)cc23)c1F (10 µM) | 0 | 0 | 0 | 2 | 0 | 0 | 0 | 0 | 0 | 0 | 0 | 0 | 0 | 0 | 0 | 0 | 4 | 0 | 0 | 0
10 | COc1cc2ncnc(Nc3cccc(Cl)c3F)c2cc1OC(=O)N1CCN(C)C[C@H]1C [Zorifertinib] (10 µM) | 0 | 0 | 0 | 0 | 0 | 0 | 3 | 0 | 0 | 0 | 0 | 0 | 3 | 0 | 0 | 0 | 0 | 0 | 0 | 0
11 | c1cc(OCCN2CCCCC2)cc(-c2n[nH]c3ccc(-c4nnc[nH]4)cc23)c1 [CC-401 (hydrochloride)] (10 µM) | 0 | 0 | 0 | 0 | 0 | 0 | 0 | 0 | 0 | 0 | 0 | 0 | 0 | 0 | 0 | 0 | 0 | 0 | 0 | 0
12 | COc1ccc(Oc2cc(NCCC(F)(F)F)c3ncc(-c4ccc(C(=O)NC5CC5)c(C)c4)n3n2)c(F)c1F (2.5 µM) | 0 | 0 | 0 | 0 | 0 | 0 | 0 | 0 | 0 | 0 | 0 | 0 | 0 | 0 | 0 | 0 | 0 | 0 | 0 | 0
13 | CN(C)C(=O)/C(C#N)=C/c1ccc(-c2nc3cnc4[nH]ccc4c3n2C2CCCCC2)o1 (10 µM) | 0 | 0 | 0 | 0 | 0 | 0 | 0 | 0 | 0 | 0 | 0 | 0 | 0 | 0 | 0 | 0 | 0 | 0 | 0 | 0
